Test in all cases: log2 fold change, soluble protein after heating vs DMSO (PISA); higher = thermal stabilisation; K562 lysate, 10 uM; active = over 0.2 and 3.5 SD of the protein, either way, in both replicates (recomputed)
Compound in assay [1]: NCC(=O)Nc1ccc(-n2nc(C(F)(F)F)cc2-c2ccc3c(ccc4ccccc43)c2)cc1
In outline:
(§1)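 Pellets of K562 cells were dounce-homogenised in PBS pH 7.4 with 1 mM MgCl2, and the crude extract was held at 1 mg/mL protein for a 30 min treatment with 10 μM compound. Aliquots were heated for 3 min over 48°C-58°C and pooled before NP-40 was added to 0.5% at 4°C. The supernatant from 21,000xg for 90 min was quantified by TMTpro 16plex LC-MS/MS with channel sums equalised. Values are reported from duplicates as log-two fold change in thermal stability relative to solvent controls.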

By UniProt entry, the sequences of proteins in these tests, tags left out. Where a name states a change or a piece, a line headed by the entry shows the natural chain unless it says otherwise.
UniProt O15240: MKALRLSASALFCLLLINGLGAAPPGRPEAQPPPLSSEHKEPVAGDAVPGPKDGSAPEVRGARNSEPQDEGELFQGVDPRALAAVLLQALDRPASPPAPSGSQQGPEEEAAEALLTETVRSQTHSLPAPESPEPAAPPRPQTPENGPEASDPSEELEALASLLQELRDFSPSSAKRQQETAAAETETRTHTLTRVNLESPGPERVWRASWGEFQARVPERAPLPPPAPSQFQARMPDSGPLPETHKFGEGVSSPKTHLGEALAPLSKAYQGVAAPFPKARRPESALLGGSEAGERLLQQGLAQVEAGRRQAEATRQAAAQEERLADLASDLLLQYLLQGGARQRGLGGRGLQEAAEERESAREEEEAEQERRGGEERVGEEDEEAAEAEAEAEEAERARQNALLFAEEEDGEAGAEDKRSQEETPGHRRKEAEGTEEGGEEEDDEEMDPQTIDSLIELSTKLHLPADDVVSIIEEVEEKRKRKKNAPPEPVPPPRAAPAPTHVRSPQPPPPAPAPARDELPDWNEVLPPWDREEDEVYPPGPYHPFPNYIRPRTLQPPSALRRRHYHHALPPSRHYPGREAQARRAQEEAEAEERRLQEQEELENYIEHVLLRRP
UniProt Q8TEY7: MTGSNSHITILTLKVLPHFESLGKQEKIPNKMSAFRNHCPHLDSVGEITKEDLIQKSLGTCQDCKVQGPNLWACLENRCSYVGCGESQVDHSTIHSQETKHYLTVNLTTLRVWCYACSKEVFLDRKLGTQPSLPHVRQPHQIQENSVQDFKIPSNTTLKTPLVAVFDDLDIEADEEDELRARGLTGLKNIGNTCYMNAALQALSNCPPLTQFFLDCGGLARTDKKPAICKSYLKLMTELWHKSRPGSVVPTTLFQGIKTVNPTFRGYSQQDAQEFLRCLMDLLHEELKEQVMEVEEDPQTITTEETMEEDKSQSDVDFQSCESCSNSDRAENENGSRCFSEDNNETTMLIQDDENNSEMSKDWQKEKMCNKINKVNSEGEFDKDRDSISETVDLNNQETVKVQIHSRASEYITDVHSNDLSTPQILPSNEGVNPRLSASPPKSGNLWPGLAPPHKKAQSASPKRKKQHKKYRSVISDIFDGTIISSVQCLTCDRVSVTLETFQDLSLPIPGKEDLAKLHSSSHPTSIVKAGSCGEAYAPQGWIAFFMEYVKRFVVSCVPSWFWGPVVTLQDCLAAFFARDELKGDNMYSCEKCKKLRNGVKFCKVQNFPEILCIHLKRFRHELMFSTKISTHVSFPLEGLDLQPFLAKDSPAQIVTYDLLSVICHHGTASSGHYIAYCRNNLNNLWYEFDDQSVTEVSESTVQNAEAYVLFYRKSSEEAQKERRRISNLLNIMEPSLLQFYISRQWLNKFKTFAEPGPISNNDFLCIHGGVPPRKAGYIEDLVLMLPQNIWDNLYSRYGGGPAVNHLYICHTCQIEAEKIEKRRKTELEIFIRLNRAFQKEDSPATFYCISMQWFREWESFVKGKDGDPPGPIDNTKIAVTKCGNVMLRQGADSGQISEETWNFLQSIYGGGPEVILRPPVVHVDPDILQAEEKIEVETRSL
UniProt P13051, whole entry, looked up: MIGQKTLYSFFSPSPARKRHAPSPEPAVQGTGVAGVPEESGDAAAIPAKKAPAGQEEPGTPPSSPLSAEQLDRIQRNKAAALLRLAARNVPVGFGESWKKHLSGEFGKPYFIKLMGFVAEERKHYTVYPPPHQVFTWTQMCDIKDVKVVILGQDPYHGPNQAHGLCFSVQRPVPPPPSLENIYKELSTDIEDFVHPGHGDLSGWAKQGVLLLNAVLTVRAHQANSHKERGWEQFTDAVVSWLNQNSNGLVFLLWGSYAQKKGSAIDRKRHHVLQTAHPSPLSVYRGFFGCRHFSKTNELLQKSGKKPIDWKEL
UniProt P55851: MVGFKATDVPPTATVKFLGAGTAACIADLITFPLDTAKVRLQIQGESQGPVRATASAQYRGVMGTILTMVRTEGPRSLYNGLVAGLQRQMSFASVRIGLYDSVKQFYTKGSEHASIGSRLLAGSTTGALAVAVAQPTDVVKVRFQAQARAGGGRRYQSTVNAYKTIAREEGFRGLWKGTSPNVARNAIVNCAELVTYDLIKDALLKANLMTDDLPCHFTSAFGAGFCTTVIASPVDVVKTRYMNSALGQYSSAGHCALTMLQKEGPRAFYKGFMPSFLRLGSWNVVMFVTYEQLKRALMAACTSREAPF
UniProt Q92738: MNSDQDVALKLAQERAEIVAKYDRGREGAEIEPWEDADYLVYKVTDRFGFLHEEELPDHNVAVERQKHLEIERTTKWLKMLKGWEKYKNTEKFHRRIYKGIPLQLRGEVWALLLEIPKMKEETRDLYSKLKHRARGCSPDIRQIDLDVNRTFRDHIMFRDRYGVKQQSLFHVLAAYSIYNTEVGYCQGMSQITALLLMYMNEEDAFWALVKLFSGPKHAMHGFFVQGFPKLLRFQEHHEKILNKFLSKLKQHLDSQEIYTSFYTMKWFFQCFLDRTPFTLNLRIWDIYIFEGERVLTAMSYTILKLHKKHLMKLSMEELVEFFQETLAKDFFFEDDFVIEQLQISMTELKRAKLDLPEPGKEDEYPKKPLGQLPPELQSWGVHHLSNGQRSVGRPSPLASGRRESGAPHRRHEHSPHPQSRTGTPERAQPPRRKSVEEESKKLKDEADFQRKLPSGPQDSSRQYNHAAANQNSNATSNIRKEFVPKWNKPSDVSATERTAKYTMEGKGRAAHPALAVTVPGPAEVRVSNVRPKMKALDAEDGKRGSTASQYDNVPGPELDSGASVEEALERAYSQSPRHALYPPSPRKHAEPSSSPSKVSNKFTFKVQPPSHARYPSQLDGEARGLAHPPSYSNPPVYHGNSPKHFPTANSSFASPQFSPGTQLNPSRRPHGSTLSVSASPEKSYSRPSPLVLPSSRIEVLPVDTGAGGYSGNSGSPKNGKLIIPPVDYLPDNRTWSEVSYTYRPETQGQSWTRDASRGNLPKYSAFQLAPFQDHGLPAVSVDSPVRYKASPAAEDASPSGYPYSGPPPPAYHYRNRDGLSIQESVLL
UniProt Q9P275: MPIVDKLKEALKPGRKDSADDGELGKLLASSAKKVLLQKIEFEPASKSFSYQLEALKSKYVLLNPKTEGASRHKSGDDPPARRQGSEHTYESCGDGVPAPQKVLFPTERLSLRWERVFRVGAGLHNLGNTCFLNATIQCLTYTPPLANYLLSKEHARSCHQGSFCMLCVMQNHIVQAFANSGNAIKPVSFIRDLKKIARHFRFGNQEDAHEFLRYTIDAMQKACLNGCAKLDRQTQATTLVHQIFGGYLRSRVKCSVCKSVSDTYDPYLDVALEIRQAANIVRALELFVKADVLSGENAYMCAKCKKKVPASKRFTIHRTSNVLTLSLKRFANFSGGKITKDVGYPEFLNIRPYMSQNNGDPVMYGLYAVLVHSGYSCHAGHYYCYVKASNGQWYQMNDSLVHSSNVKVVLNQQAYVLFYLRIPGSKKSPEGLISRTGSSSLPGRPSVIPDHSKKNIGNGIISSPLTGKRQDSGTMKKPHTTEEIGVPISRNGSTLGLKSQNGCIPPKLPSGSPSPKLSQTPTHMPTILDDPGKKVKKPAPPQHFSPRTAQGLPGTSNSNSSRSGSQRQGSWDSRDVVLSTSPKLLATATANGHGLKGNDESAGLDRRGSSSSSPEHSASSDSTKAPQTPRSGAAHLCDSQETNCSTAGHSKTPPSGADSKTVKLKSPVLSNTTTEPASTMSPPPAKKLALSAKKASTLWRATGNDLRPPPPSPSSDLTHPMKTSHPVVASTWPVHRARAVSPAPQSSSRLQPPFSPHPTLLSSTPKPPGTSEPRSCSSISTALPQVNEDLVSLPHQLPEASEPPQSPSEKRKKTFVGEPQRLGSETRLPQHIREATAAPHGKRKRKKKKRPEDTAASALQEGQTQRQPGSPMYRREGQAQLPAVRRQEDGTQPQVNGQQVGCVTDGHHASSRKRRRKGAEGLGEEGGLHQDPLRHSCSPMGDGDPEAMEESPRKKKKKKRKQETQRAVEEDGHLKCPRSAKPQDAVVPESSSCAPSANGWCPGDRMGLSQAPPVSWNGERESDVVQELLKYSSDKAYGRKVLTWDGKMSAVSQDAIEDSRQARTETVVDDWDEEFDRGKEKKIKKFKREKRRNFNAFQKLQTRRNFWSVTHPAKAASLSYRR
UniProt Q9NVE5: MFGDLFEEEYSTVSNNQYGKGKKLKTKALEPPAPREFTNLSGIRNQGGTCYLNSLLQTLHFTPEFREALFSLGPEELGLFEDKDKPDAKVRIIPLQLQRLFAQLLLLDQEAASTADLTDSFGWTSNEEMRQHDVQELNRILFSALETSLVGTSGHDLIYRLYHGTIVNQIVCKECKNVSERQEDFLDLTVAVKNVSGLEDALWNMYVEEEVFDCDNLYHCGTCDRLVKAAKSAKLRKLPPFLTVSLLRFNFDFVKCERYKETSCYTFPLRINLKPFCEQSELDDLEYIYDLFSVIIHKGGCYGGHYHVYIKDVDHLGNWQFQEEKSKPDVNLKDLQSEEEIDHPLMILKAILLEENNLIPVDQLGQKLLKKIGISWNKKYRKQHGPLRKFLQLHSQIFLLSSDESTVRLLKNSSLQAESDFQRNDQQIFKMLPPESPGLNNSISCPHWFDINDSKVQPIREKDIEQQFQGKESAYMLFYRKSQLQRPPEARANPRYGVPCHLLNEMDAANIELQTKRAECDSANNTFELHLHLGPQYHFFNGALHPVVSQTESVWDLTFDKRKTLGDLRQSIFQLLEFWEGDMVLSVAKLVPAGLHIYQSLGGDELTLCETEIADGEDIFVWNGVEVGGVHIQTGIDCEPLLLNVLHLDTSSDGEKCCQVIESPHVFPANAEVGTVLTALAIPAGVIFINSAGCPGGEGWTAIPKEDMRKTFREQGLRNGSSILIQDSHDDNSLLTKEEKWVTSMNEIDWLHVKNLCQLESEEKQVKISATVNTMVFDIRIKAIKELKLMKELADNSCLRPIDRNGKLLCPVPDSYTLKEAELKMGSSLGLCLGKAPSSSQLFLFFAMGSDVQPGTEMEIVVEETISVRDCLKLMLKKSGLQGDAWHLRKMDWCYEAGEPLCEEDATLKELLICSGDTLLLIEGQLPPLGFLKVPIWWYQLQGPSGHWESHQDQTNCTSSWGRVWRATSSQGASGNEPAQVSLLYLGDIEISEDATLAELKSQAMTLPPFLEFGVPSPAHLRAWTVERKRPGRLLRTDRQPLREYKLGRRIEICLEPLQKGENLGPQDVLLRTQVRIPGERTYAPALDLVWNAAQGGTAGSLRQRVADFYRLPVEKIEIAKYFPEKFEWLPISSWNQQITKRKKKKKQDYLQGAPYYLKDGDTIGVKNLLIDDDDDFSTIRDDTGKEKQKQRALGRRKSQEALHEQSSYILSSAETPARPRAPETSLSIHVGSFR
UniProt Q96PU4: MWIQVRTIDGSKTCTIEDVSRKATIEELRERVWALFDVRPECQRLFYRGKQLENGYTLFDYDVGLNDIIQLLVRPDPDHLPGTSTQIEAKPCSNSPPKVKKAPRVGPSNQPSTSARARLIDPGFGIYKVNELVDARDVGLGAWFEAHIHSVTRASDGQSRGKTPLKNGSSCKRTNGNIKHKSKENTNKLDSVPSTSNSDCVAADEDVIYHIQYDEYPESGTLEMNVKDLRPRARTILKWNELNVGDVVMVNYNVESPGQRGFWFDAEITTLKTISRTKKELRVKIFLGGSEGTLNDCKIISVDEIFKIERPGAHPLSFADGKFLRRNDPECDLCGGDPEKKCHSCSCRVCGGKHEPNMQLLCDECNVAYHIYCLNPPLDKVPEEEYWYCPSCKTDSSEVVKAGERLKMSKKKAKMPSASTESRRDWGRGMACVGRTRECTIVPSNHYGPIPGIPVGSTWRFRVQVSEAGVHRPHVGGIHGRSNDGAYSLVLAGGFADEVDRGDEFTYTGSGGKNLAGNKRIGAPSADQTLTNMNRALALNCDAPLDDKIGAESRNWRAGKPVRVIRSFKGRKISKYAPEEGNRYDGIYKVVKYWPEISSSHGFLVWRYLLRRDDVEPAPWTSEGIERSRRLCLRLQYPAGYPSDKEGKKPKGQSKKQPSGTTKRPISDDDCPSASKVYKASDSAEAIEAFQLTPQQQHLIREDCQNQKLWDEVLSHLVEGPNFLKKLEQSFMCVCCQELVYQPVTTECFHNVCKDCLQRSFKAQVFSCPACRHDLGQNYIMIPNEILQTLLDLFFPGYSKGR
UniProt P15692, whole entry, looked up: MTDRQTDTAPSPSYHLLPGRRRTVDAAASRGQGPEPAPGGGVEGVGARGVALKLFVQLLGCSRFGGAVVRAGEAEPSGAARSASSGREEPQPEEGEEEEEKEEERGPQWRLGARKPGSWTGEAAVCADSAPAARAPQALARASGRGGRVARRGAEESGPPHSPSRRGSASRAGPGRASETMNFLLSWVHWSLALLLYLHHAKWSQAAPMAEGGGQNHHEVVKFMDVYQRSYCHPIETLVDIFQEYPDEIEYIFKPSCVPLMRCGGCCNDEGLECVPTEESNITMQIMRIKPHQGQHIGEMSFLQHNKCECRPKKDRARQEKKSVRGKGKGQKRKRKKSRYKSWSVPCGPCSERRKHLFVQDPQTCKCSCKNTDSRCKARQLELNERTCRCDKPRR

Compound in assay [2]: O=C1NC(=O)C(c2cnc3ccccn23)=C1c1cn2c3c(cc(F)cc13)CN(C(=O)N1CCCCC1)CC2
In outline: as §1

Compound in assay [3]: c1cn2cc(-c3ccc4cn[nH]c4c3)nc(Nc3ccc(N4CCOCC4)cc3)c2n1 [entospletinib]
In outline:
as §1

Compound in assay [4]: O=C(CCCCCCC(=O)Nc1ccccc1)NO [vorinostat]
The essentials:
as §1

Compound in assay [5]: O=C(O)c1ccc2c(c1)nc(Nc1cccc(Cl)c1)c1ccncc12 [silmitasertib]
The essentials: as §1

The other results are listed elsewhere or left out.

Regarding USP38 (UniProt Q8NB14), the log2 fold change in assay [1] is inactive: 0.067; in assay [2], inactive: 0.079; in assay [3] it was inactive: -0.01.
In the case of VGF (UniProt O15240), the log2 fold change was inactive: 0.122 in assay [1], inactive: 0.13 in assay [4], inactive: -0.133 in assay [5] and inactive: -0.205 in assay [3].
Regarding USP15 isoform 3 (UniProt Q9Y4E8), in assay [2], the log2 fold change was inactive: 0.072.
Turning to UNKL (UniProt E9PDK2), the log2 fold change is inactive: -0.336 in assay [1], inactive: 0.003 in assay [2] and inactive: 0.108 in assay [3].
Turning to USP30 (UniProt Q70CQ3), the log2 fold change in assay [4] is inactive: -0.119; in assay [5] it was inactive: -0.022; in assay [2] it was inactive: 0.063.
Turning to USP33 (UniProt Q8TEY7), the log2 fold change in assay [2] was inactive: 0.345.
Take UNC119 (UniProt Q13432): the log2 fold change in assay [4] is inactive: -0.096; in assay [5], inactive: 0.084; in assay [2], inactive: 0.073.
Consider UQCC1 (UniProt Q9NVA1), for which the log2 fold change in assay [1] was inactive: -0.051; in assay [4], inactive: 0.071; in assay [5], inactive: 0.035; in assay [2], inactive: 0.011; in assay [3] it was inactive: 0.02.
For UNG (UniProt P13051), the log2 fold change in assay [4] was inactive: -0.072; in assay [5], inactive: 0.179; in assay [3], inactive: -0.15.
As for USP27X (UniProt A6NNY8), the log2 fold change in assay [2] was inactive: -0.143.
For UTP11 (UniProt Q9Y3A2), the log2 fold change in assay [1] is inactive: 0.124; in assay [2] it was inactive: -0.096; in assay [3], inactive: 0.135.
On to USP19 isoform 4 (UniProt O94966), for which the log2 fold change in assay [1] is inactive: 0.166; in assay [4] it was inactive: -0.143; in assay [5], inactive: -0.09; in assay [3], inactive: -0.051.
USP20 (UniProt Q9Y2K6): the log2 fold change in assay [4] was inactive: -0.11; in assay [5], inactive: 0.027; in assay [2], inactive: 0.006; in assay [3] it was inactive: 0.039.
In the case of VIRMA (UniProt Q69YN4), the log2 fold change in assay [1] is inactive: -0.022; in assay [4] it was inactive: -0.094; in assay [5], inactive: 0.014; in assay [2], inactive: 0.033; in assay [3], inactive: -0.104.
Take VCPKMT (UniProt Q9H867): the log2 fold change in assay [4] is inactive: 0.292; in assay [5], inactive: 0.243; in assay [2] it was inactive: 0.033.
For the target VANGL2 (UniProt Q9ULK5), the log2 fold change is inactive: -0.189 in assay [4], inactive: -0.079 in assay [5] and inactive: 0.209 in assay [2].
Consider USF3 (UniProt Q68DE3), for which the log2 fold change in assay [4] was inactive: 0.008; in assay [5], inactive: 0.023; in assay [3] it was inactive: -0.004.
Regarding UTRN isoform 2 (UniProt P46939), the log2 fold change was inactive: 0.173 in assay [4], inactive: -0.144 in assay [5] and inactive: -0.424 in assay [3].
Turning to USP46 (UniProt P62068), the log2 fold change in assay [2] was inactive: 0.072.
Take UCP2 (UniProt P55851): the log2 fold change in assay [1] is inactive: -0.12; in assay [2] it was inactive: 0.035.
Take URI1 isoform 4 (UniProt O94763): the log2 fold change in assay [4] is inactive: -0.02; in assay [5] it was inactive: -0.033; in assay [2], inactive: 0.049; in assay [3], inactive: 0.068.
On to USP6NL isoform 2 (UniProt Q92738), for which the log2 fold change in assay [1] is inactive: -0.109; in assay [2] it was inactive: -0.137; in assay [3], inactive: -0.114.
Take UQCC3 (UniProt Q6UW78): the log2 fold change in assay [1] is inactive: -0.141; in assay [4], inactive: 0.055; in assay [5], inactive: 0.048; in assay [3] it was inactive: -0.18.
Turning to UNC13A (UniProt Q9UPW8), the values for the log2 fold change in assay [4] and in assay [5] were inactive: -0.485 and inactive: 0.078, respectively.
With USP36 (UniProt Q9P275), the log2 fold change was inactive: -0.4 in assay [1], inactive: 0.076 in assay [2] and inactive: 0.098 in assay [3].
Regarding USP37 (UniProt Q86T82), the log2 fold change in assay [1] is inactive: 0.266; in assay [2], inactive: -0.194; in assay [3], inactive: -0.076.
With USP40 isoform 3 (UniProt Q9NVE5), the values for the log2 fold change in assay [4], in assay [5] and in assay [2] were inactive: 0.062, inactive: -0.06 and inactive: -0.053, respectively.
For UHRF2 (UniProt Q96PU4), the log2 fold change is inactive: -0.142 in assay [1] and inactive: 0.427 in assay [2].
Turning to UROD (UniProt H0Y5R6), the log2 fold change in assay [1] is inactive: -0.059; in assay [3], inactive: 0.021.
Regarding UMAD1 (UniProt C9J7I0), the log2 fold change in assay [2] was inactive: -0.018.
Turning to VGLL4 isoform 4 (UniProt Q14135), the log2 fold change in assay [4] is inactive: -0.03; in assay [5], inactive: -0.021; in assay [2] it was inactive: -0.112.
As for USP42 (UniProt Q9H9J4), the log2 fold change in assay [2] is inactive: -0.053; in assay [3], inactive: -0.116.
As to USP54 (UniProt Q70EL1), in assay [2], the log2 fold change was inactive: -0.035.
As to URB2 (UniProt Q14146), the log2 fold change in assay [1] is inactive: 0.094; in assay [2], inactive: 0.044; in assay [3] it was inactive: -0.008.
For VASN (UniProt Q6EMK4), the log2 fold change in assay [4] is inactive: 0.233; in assay [5], inactive: -0.263; in assay [3], inactive: -0.027.
VEGFA isoform 14 (UniProt P15692): the log2 fold change in assay [2] is inactive: 0.005.
Consider URM1 isoform 2 (UniProt Q9BTM9), for which the log2 fold change in assay [1] was inactive: -0.1; in assay [4], inactive: -0.078; in assay [5], inactive: 0.046; in assay [3] it was inactive: -0.034.
Turning to UTP23 (UniProt Q9BRU9), the log2 fold change was inactive: -0.072 in assay [4], inactive: -0.066 in assay [5] and inactive: -0.002 in assay [2].
As to VCX3B (UniProt Q9H321), the log2 fold change is inactive: 0.12 in assay [4], inactive: 0.041 in assay [5], inactive: -0.018 in assay [2] and inactive: 0.015 in assay [3].
